Laboratory results: US20070111939A1
No constants are given. Whether binding was seen depends on the method and setting. Some entries that bind do so weakly or less than the wild type. Sequences can lack the tags named with a protein.

Legend:
[1] = molecular target: T1, recombinant human IL-11 (human) (UniProt P20809); assay: ELISA, IL-11 coated plate, detection with protein A-HRP, absorbance at 490 nm
T1 sequence (looked up): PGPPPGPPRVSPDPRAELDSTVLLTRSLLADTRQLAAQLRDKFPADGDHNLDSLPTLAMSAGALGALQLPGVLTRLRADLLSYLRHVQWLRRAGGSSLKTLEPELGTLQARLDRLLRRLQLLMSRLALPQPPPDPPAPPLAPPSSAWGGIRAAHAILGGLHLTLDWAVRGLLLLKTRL

[2] = molecular target: T1, recombinant human IL-11 (human); assay: ELISA (FIG. 4)
[3] = molecular target: T1, recombinant human IL-11 (human); assay: competition ELISA, fusion protein preincubated with excess soluble IL-11 before addition to IL-11 coated plate

Measured: binding

B1: IL-11R-Ig fusion protein (Fc fusion, not shown: small tags and cut ends)
chain: SPCPQAWGPPGVQYGQPGRSVKLCCPGVTAGDPVSWFRDGEPKLLQGPDSGLGHELVLAQADSTDEGTYICQTLDGALGGTVTLQLGYPPARPVVSCQAADYENFSCTWSPSQISGLPTRYLTSYRKKTVLGADSQRRSPSTGPWPCPQDPLGAARCVVHGAEFWSQYRINVTEVNPLGASTRLLDVSLQSILRPDPPQGLRVESVPGYPRRLRASWTYPASWPCQPHFLLKFRLQYRPAQHPAWSTVEPAGLEEVITDAVAGLPHAVRVSARDFLDAGTWSTWSPEAWGTPSTGTIPKEIPAWGQLHTQPEVEPQVDSPAPPRPSLQPHPRLLDHRDSVEQ
binds: all assays above
